Measured values from US20090223903A1, “METHODS AND APPARATUSES FOR C[…] WATER” (priority 2007, published 2009).

Experiments:
[1] = pH time response of simulated pool water in a 6 L vessel with an operating DuoClear 15 electrolytic chlorinator
[2] = pH control in a 200 gallon mini-pool with electrolytic chlorination and metered ZnCl2 addition

## [Cl-].[Cl-].[Zn+2] [zinc chloride]
[1]; 12.2 mM aqueous solution via peristaltic pump at 10.5 ml/min, over 60 minutes of operation
  net increase in pH: about 0.8 pH units
[1]; 25 mM solution at 10.2 ml/min, over 60 minutes of operation
  pH increase: about 0.2 pH units
[1]; 6.28 g batch addition, mixed overnight, pH before addition 7.9
  initial pH after zinc chloride addition and mixing: 6.0
[1]; 6.28 g zinc chloride one-time batch addition to 6 L conditioned water, mixed overnight, over 60 minutes of chlorinator operation
  increase in pH: approximately 1.25 pH units
[2]; after 125 minutes elapsed, ZnCl2 pump off, chlorination continued
  pH drop after ZnCl2 pump turned off: 0.02 units
[2]; chlorination 2 g/hr plus continuous metered 25 mM ZnCl2 at 1.2 liters/hr, over 125 minutes with metering pump operating
  pH increase: no pH increase
[2]; over a 200 minute period after ZnCl2 pump off, excess ZnCl2 consumed
  pH increase after ZnCl2 pump turned off: 0.35 units
